Entries after “also recorded” stand apart in the source; their conditions may differ. At least one compound was matched to its structure with a doubt left.
What was measured:
[1] = test system: HFD-fed C57BL/6 mice; experiment: MTA in HFD-fed C57BL/6 mice: obesity and metabolic disorders; format: in vivo
[2] = test system: hepatic gene expression; experiment: Hepatic RNA-sequencing of treated mice; format: in vivo; conditions: liver
Method: To obtain a more comprehensive understanding of MTA's potential as an antiobesity molecule, hepatic RNA-sequencing was performed on mice treated with both MTA and B. longum to determine its underlying mechanism for preventing obesity. […] Then, we conducted an in-depth analysis of the regulated genes involved in these biological functions. […] Likewise, overexpression of inhibin beta-A, which is encoded by the Inhba gene, can stimulate mitochondrial energy metabolism and increase energy expenditure.
Bile acids are regarded as important signaling molecules to regulate fatty acid, cholesterol, energy and glucose homeostasis; therefore, enhancing bile acid synthesis may be a strategy to avoid diet-induced obesity. Furthermore, the increased expression of Cyp7a1, which encodes the rate-limiting enzyme in the classic bile acid synthesis pathway, prevents high-fat diet-induced obesity, insulin resistance and atherosclerosis.

[3] = test system: hepatic primary bile acids; experiment: Hepatic bile acid analysis; format: in vivo, mice; conditions: liver
[4] = test system: HepG2 cells; experiment: Lipid accumulation assay in uric acid-treated HepG2 cells; format: cell-based; conditions: 120 μg/mL uric acid, 24 hours
Method: The lipid accumulation assay was done. Briefly, HepG2 cells at 70% confluence were incubated in RPMI 1640 medium containing 120 μg/mL uric acid for 24 hours, which was used to increase the lipid accumulation. After being washed by PBS buffer, the cells were maintained in new RPMI 1640 medium containing the metabolites (5.0, 1.0, 0.5, 0.1, and 0.05 μg/mL, the dried metabolites were redissolved in RPMI 164 medium) and 120 μg/mL uric acid for another 24 hours. Cells maintained in pure RPMI 1640 medium were employed as control.
To further identify bioactive metabolites produced by B. longum, we applied a fractionation approach followed by liquid chromatography-mass spectrometry (LC-MS) coupled with in vitro screening strategy (FIG. 2A). Briefly, the extraction method of B. longum BCRC12585 metabolites (that is, B. longum metabolites, or B. longum crude extract) is the same as in Example 2, and then twenty-five fractions derived from B. longum metabolites were prepared by pre-HPLC column, followed by individually testing the anti-lipid accumulation activity with HepG2 cells. […] To identify candidate metabolites from each active fraction, further analysis was performed by using liquid chromatography coupled with high resolution mass spectrometry (LC-MS/MS). […]

[5] = test system: 3T3-L1 adipocytes; experiment: Triglyceride accumulation in differentiated 3T3-L1 adipocytes; format: cell-based; conditions: 2 days; for triglyceride (TG) accumulation in 3T3-L1 adipocytes: FIG. 5A; for triglyceride accumulation in 3T3-L1 adipocytes: FIG. 5B
[6] = MTA 100 mg/kg/day gavage from the 8th week, HFD 17 weeks

For CSC[C@H]1O[C@@H](n2cnc3c(N)ncnc32)[C@H](O)[C@@H]1O [MTA, 5′-s-methyl-5′-thioadenosine], which body weight [1, 6] is on record?
Its body weight is “significantly decreased”.

And the subcutaneous fat mass [1, 6]?
The subcutaneous fat mass was “significantly decreased”.

And the visceral fat mass [1, 6]?
The visceral fat mass was “significantly decreased”.

What about the “weight increase over the study period” value [1, 6] of the same compound?
Its value is “significantly decreased”.

And the “hepatic steatosis (liver weight and liver H&E staining)” value ([1]; MTA 100 mg/kg/day, obese mice)?
Its value is “could alleviate hepatic steatosis”.

What about the “ELOVL fatty acid elongase 3 (Elov/3) expression” value [2] of the same compound?
Its value is “decreased”.

What about the “beta-2-adrenergic receptor gene (Adrb2) expression” value [2] of the same compound?
Its value is “up-regulated”.

What about the “expression of adropin (Enho)” value [2] of the same compound?
The value was “elevated expression”.

What about the “expression of insulin induced gene 2 (Insig2)” value [2] of the same compound?
Its value is “decreased”.

And the “genes regulated (GO enrichment analysis of top 30 differentially expressed molecular function)” value [2]?
The value was “considerably regulated the genes involved in fatty acid metabolism”.

And the “leptin receptor gene (Lepr) expression” value [2]?
Its value is “up-regulated”.

What about the “hepatic primary bile acids” value [3] of the same compound?
Its value is “enhanced trend”.

And the “lipid accumulation in HepG2 cells” value [4]?
The value was “significantly inhibited; also recorded: exhibited a lipid-lowering effect”.

What about the “triglyceride (TG) accumulation in 3T3-L1 adipocytes” value ([5]; 1 μg/mL) of the same compound?
Its value is “significantly inhibited”.

What about the “triglyceride accumulation in 3T3-L1 adipocytes” value (“triglyceride accumulation” for short) ([5]; 2.5 μg/mL) of the same compound?
The value was “had a tendency to inhibit”.

What about the “triglyceride (TG) accumulation in 3T3-L1 adipocytes” value ([5]; 5 μg/mL) of the same compound?
The value was “significantly inhibited”.

And the “triglyceride accumulation” value ([5]; 5 μg/mL)?
Its value is “had a tendency to inhibit”.

What about the “triglyceride accumulation” value ([5]; 10 μg/mL) of the same compound?
The value was “significantly inhibited”.

— patent publication US20260144829A1, “SYNBIOTIC COMPOSITION, METABOLITES, AND METHOD OF PREVENTING AND TREATING OBESITY-RELATED DISEASE” (priority 2023, published 2026)
